The target of assay [1] is RPA70 (DBD-A, -B, -C, residues 190-623) (mouse) (UniProt Q8VEE4). Description: SEC; RPA70/32/14 co-expressed in E. coli and co-purified (Ni-NTA, Q-sepharose, SEC; 20 mM Hepes pH 7.0, 125 mM NaCl, 2 mM DTT, 0.01 mM zinc acetate); single peak. On the technique in general: Size exclusion chromatography separates by hydrodynamic size, large species first.
Assay [2] addresses RPA32 (DBD-D and WH domain, residues 43-270) (mouse) (UniProt Q62193). Description: co-purification (Ni-NTA, Q-sepharose, SEC); RPA32/14 co-expressed in E. coli and co-purified; eluted from Q-sepharose as a single peak.

Chains of the proteins cited; added tags and fusions are not shown. Residues count along the entry.
UniProt Q8VEE4, residues 190-623: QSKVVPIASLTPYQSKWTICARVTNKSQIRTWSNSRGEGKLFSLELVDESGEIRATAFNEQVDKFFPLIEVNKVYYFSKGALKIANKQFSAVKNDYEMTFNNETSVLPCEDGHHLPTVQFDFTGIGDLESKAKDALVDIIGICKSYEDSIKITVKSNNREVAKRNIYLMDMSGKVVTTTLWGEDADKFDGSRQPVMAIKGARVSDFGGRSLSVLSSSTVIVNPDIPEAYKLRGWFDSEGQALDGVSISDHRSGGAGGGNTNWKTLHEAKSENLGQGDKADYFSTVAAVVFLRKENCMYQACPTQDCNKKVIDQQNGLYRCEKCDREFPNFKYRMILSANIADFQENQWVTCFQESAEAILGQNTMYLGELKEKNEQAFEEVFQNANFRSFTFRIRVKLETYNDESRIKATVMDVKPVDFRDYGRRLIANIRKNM
UniProt Q62193, residues 43-270: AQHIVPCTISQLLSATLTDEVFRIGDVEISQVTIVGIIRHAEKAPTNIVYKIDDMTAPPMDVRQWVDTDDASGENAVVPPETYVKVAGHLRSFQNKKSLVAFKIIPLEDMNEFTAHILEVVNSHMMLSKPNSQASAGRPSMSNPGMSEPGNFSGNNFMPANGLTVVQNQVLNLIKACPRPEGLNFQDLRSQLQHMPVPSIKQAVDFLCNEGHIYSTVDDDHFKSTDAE
UniProt Q9CQ71: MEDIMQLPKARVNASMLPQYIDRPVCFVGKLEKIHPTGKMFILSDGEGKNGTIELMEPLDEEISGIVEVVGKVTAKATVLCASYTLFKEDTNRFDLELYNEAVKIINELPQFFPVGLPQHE

These are yes or no findings as the source states them, for the method shown. Some binding calls cover weakened binding; strength is not graded here.

“RPA14 (residues 1-121) (from UniProt Q9CQ71 1-121)”: the binding entry in assay [1] and in assay [2] was “binds” each time.

For “RPA32 (DBD-D and WH domain, residues 43-270) (from UniProt Q62193 43-270) (domain or fragment)”, the binding result in assay [1] is listed as “binds”.
